Assay results published in US20190343860A1 (Saint Louis University, priority 2016, published 2019).

System: CHO cells
Assay: Raman microscopy of intracellular drug location in CHO cells
Assay type: cell-based

SMILES | Intracellular accumulation (Raman, ~2220 cm−1 region) (1 μM) | Intracellular accumulation (Raman, ~2220 cm−1 region) (0.2 μM) | Localization relative to mitochondrial cytochrome c signal (750 cm−1) (0.25 μM)
CNC(=O)[C@@]12C[C@@H]1[C@@H](n1cnc3c(NC)nc(C#Cc4ccc(Cl)s4)nc31)[C@H](O)[C@@H]2O [MRS5980] | appears to be enriched in a subset of the intracellular space |  | 
CNC(=O)[C@@]12C[C@@H]1[C@@H](n1cnc3c(NCc4cccc(Cl)c4)nc(C#Cc4ccc(F)c(F)c4)nc31)[C@H](O)[C@@H]2O [MRS5698] |  | appears to be enriched in a subset of the intracellular space | localizes in intracellular regions corresponding to the mitochondrial cytochrome c signal
